Experimental data: US20240376176A1 (priority 2021, published 2024)

Assay: peptide synthesis
Conditions: whole synthesis, HPLC

Substance: Benz-YFYLLG-NH2 (N-terminal benzoyl; C-terminal amide)
- purity (crude or final not stated): 97.24%

Substance: Benz-FFFLL-G-CGEWIET
- purity (crude or final not stated): 97.77%

Substance: Benz-FFFLLG-NH2 (N-terminal benzoyl; C-terminal amide)
- purity (crude or final not stated): 96.45%
